The other results are listed elsewhere or left out.
Columns and labels:
Assay in all cases: log2 fold change, soluble protein after heating vs DMSO (PISA); higher = thermal stabilisation; K562 lysate, 10 uM; active = over 0.2 and 3.5 SD of the protein, either way, in both replicates (recomputed)
[1] = compound: C1=CC=C(C=C1)[C@H](COC2=CC3=C(C=C2)NC(=O)N3)NC(=O)C4=CC=CN(C4=O)CC5=CC(=C(C=C5)F)F
Outline: (§1)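 Quantification was by TMTpro 16plex LC-MS/MS with equalised channel sums, applied to the supernatant after 21,000xg for 90 min. Samples were crude K562 extract at 1 mg/mL protein in PBS pH 7.4 with 1 mM MgCl2, treated with 10 μM compound for 30 min, heated for 3 min across 48°C-58°C, pooled and brought to 0.5% NP-40 at 4°C. Values are log-two fold changes in thermal stability relative to solvent controls, from duplicates.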

The chains behind the UniProt entries cited, without tags or fusion partners. Where a name states a change or a piece, a line headed by the entry shows the natural chain unless it says otherwise.
UniProt O14523: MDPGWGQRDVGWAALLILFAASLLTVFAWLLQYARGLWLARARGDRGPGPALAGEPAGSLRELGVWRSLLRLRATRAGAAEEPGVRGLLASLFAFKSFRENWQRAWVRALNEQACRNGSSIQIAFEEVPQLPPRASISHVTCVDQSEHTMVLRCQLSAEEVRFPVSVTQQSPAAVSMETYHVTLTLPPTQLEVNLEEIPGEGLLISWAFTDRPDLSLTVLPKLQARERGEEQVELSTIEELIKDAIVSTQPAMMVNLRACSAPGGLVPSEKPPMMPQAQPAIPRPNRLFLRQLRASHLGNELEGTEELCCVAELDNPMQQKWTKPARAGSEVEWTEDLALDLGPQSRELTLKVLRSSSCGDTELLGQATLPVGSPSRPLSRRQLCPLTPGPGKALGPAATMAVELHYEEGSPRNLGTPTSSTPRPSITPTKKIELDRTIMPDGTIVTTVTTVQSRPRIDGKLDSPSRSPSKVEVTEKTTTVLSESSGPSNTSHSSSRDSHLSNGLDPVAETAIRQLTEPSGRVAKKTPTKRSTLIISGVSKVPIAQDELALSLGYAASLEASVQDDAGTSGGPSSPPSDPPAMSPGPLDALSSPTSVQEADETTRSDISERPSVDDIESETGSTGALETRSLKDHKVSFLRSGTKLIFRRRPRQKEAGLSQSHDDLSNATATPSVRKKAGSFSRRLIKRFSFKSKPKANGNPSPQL
UniProt Q9BRJ6: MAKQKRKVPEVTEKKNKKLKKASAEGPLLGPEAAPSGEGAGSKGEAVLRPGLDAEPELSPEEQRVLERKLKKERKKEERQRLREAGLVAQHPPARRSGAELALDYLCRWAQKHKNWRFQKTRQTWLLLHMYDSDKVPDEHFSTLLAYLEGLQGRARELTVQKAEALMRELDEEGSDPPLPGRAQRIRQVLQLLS
UniProt Q8WVQ1: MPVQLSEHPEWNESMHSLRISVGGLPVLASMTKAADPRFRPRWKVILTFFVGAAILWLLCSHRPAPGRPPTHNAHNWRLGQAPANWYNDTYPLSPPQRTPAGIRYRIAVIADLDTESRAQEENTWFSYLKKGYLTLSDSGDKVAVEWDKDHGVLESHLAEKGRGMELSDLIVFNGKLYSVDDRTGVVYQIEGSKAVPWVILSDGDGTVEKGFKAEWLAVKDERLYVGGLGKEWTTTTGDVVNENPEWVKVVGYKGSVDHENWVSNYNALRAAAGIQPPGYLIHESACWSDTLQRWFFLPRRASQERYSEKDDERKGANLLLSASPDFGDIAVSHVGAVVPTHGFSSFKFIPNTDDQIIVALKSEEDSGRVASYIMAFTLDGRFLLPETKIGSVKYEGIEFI
UniProt Q9HAS0: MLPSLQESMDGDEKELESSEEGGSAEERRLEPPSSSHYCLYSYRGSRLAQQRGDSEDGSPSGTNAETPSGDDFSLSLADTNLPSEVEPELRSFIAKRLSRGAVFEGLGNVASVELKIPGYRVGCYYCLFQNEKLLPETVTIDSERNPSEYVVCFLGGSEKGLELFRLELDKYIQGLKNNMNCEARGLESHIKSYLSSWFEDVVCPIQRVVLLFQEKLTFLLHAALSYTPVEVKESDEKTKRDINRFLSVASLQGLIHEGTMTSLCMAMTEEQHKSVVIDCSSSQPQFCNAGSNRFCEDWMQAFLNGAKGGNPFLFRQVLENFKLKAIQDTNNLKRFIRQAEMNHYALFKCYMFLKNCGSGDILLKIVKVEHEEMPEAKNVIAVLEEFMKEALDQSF
UniProt Q6PH81: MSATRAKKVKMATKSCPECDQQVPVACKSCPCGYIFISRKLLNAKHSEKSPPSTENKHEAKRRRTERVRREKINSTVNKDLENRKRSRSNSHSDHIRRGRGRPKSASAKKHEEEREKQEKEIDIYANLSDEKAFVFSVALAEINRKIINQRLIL
UniProt O43683: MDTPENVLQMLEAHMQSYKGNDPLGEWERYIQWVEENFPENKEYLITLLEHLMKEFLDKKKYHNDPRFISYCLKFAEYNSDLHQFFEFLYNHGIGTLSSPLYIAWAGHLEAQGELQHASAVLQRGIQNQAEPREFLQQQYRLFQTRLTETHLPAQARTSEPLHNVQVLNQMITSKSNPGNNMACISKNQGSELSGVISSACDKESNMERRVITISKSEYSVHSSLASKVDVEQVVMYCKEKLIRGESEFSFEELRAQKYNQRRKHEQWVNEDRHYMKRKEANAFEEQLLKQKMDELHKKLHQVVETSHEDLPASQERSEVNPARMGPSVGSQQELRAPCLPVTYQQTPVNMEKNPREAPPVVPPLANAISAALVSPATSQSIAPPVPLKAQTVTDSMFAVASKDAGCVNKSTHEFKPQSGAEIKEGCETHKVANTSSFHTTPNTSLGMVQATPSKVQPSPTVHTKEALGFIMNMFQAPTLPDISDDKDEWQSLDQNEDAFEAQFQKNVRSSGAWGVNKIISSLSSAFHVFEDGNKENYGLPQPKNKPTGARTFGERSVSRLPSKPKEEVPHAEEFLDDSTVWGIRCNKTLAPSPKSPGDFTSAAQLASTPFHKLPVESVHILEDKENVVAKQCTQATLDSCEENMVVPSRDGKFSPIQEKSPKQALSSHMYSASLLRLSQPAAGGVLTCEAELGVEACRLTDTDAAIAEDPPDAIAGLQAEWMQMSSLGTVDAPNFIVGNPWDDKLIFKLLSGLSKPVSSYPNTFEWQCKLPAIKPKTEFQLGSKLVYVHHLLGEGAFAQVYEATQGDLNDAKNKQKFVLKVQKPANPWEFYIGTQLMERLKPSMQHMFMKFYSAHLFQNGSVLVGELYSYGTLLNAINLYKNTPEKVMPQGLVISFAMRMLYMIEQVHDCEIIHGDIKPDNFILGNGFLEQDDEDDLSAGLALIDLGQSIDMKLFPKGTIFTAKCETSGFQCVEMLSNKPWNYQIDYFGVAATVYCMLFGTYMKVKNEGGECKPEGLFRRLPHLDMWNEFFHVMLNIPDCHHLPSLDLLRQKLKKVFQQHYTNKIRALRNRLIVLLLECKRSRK
UniProt Q9H3J6: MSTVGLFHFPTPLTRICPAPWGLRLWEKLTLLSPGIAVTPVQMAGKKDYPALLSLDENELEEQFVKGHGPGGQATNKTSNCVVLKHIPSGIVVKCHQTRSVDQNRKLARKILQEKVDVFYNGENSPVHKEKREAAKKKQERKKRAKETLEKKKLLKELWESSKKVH
UniProt A6NDU8: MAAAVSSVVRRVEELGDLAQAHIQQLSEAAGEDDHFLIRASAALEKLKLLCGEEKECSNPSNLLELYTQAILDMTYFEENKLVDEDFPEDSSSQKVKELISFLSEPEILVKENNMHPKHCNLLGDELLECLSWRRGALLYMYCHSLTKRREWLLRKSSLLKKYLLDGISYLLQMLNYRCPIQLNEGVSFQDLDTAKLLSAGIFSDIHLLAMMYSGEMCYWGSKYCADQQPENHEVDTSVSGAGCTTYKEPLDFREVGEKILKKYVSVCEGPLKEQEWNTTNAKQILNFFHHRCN
UniProt Q96RR4, whole entry, looked up: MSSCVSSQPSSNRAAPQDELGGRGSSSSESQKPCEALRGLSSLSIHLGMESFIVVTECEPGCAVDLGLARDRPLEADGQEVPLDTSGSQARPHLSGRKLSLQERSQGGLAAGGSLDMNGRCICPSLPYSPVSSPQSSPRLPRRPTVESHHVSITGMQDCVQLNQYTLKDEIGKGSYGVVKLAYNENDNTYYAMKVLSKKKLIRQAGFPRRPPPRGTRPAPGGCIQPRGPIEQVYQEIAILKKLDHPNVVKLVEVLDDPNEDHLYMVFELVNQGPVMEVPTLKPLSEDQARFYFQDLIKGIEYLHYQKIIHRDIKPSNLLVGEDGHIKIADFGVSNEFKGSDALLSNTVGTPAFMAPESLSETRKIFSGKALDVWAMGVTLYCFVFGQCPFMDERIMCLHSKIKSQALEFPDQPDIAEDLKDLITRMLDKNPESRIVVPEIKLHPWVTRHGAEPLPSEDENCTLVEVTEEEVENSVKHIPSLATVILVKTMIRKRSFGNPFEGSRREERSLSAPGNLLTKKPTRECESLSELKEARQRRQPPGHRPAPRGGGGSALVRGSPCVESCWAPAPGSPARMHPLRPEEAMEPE

[2] = compound: CC1=C(SC2=C1C(=N[C@H](C3=NN=C(N32)C)CC(=O)N)C4=CC=C(C=C4)Cl)C
Outline: as §1

[3] = compound: CC1=C2C(=CC=C1)N=C(N(C2=O)C3=CC=CC=C3C)CN4C=NC5=C(N=CN=C54)N
Outline: as §1

[4] = compound: Cc1sc2c(c1C)C(c1ccc(Cl)cc1)=N[C@@H](CC(=O)OC(C)(C)C)c1nnc(C)n1-2
Outline: as §1

[5] = compound: c1ccc([C@@H]2C[C@H]2NC2CCNCC2)cc1
Outline: as §1

Measured: log2 fold change

C2CD2L (UniProt O14523)
inactive: [1] -0.041 | [2] 0.073 | [3] 0.155 | [4] -0.039 | [5] -0.02

C7orf50 (UniProt Q9BRJ6)
inactive: [1] 0.096 | [2] -0.053 | [3] -0.011 | [4] 0.02 | [5] 0.055

CANT1 (UniProt Q8WVQ1)
inactive: [1] 0.013 | [2] -0.021 | [3] -0.003 | [4] 0.011 | [5] 0.012

C17orf75 (UniProt Q9HAS0)
inactive: [1] -0.094 | [2] 0.002 | [3] 0.019 | [4] -0.002 | [5] -0.02

2 consecutive entries already listed, for reference:
C2CD2L (UniProt O14523)
inactive: [1] -0.041 | [2] 0.073 | [3] 0.155 | [4] -0.039 | [5] -0.02

C7orf50 (UniProt Q9BRJ6)
inactive: [1] 0.096 | [2] -0.053 | [3] -0.011 | [4] 0.02 | [5] 0.055

The list continues.

C16orf87 (UniProt Q6PH81)
inactive: [1] -0.024 | [2] 0.048 | [3] 0.101 | [4] 0.002 | [5] 0.004

BUB1 (UniProt O43683)
inactive: [1] -0.109 | [2] 0.052 | [3] 0.011 | [4] -0.174 | [5] -0.13

C12orf65 (UniProt Q9H3J6)
inactive: [1] 0.04 | [2] 0.04 | [3] -0.097 | [4] 0.052 | [5] -0.019

C5orf51 (UniProt A6NDU8)
inactive: [1] -0.047 | [2] -0.023 | [3] 0.001 | [4] -0.026 | [5] 0.092

CAMKK2 (UniProt Q96RR4)
inactive: [1] 0.002 | [2] -0.047 | [3] 0.072 | [4] 0.051 | [5] -0.013

From the supplement of paper PMC10849652
